Source: article PMC3360035
Substitutions are numbered along the chain they refer to. Names and notes keep the numbering of the source. No constants are given. Whether binding was seen depends on the method and setting. Some results given as binding are weak or reduced against the parent protein; the word gives no strength.

B1: αB-crystallin, wild type (protein, UniProt P02511 1-175)
chain: MDIAIHHPWIRRPFFPFHSPSRLFDQFFGEHLLESDLFPTSTSLSPFYLRPPSFLRAPSWFDTGLSEMRLEKDRFSVNLDVKHFSPEELKVKVLGDVIEVHGKHEERQDEHGFISREFHRKYRIPADVDPLTITSSLSSDGVLTVNGPRKQVSGPERTIPITREEKPAVTAAPKK
B2: αB-crystallin W9F/W60F (lacking tryptophans) (protein, UniProt P02511 1-175)
chain: B1 chain with W9F, W60F

What was measured:
[1] = target: Human γD-crystallin I90F (human) (UniProt P07320); test: SEC; native mixing: HγD and chaperone 1:1, each 1 mg/ml in SEC buffer, 37°C with gentle rotation for 14 to 28 days; filtered (0.2 µm), Superose 6 10/300 GL; fractions checked by Western blot (αB, HγD) or Trp fluorescence; both purified
[2] = target: Human γD-crystallin I90F (human) (UniProt P07320); test: SEC; HγD unfolded overnight in 5 M GdnHCl at 37°C, diluted 10-fold into refolding buffer (100 mM sodium phosphate, 1 mM EDTA, 5 mM DTT, pH 7.0) with αB in 5-fold molar excess (0.1 mg/ml HγD, 0.5 mg/ml αB, 0.5 M GdnHCl), 37°C; the suppression reaction then run over Superose 6; both purified
[3] = target: Human γD-crystallin I90F (human) (UniProt P07320); test: condition: only upon initial mixing (0 days), before the incubation at 37°C; SEC; native mixing as in a2 but upon initial mixing (0 days, no incubation); Superose 6 10/300 GL; both purified

Row | Binder | binding [1] | binding [2] | binding [3]
1 | B1 | binds | binds | 
2 | B2 | binds |  | no binding
